PubChem BioAssay AID686937 | Drosophila RNAi Screening Center | 2013

Screen: 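Genes whose loss weakens secretory pathway function in fly cells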 (primary screen)
System: Drosophila S2 cells expressing secreted horseradish peroxidase
Knock-down reagent: long dsRNA against Drosophila genes
Time to read-out: about 5.5 days (5 days dsRNA, then 12 h reporter induction)
Challenge: reporter expression induced after 5 days of dsRNA, read 12 h later; inducer not stated
Measurement: 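Chemiluminescent measurement of peroxidase in the medium 12 h after reporter induction, following 5 days of dsRNA, given as a z-score per plate; higher means more secretion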
Reading the numbers: z-score: higher = more reporter secreted into medium
The screen tested about 23,000 reagents; this is an unselected part of those with a known target gene and a result. 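Reduced-secretion tags in replicate 1 do not always agree with the z-scores; no criterion for assigning the tags was given.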 Names joined by + are all predicted targets of the reagent. Not all columns of the deposit are shown. No sequences are given here. Not stated in the record: the amount of reagent.

| Target gene | DRSC id | z-score, replicate 1 | z-score, replicate 2 | z-score, replicate 3 | z-score, replicate 4 |
| --- | --- | --- | --- | --- | --- |
| CG13560 | DRSC04198 | -0.02 | 0.25 | – | – |
| Pgm2b | DRSC05978 | 0.25 | 0.25 | – | – |
| CG17816 | DRSC15277 | 0.66 | 0.33 | -0.04 | 0.55 |
| CG31559 | DRSC12172 | 0.05 | -0.02 | – | – |
| CG31559 | DRSC12270 | 0.18 | 0.27 | – | – |
| trem | DRSC15575 | 0.32 | 0.41 | – | – |
| Cnb | DRSC08569 | 0.19 | 0.38 | – | – |
| CG17764 | DRSC18135 | 0.35 | -0.04 | – | – |
| cyr | DRSC18017 | 0.23 | 0.63 | – | – |
| cyr | DRSC18018 | 0.28 | 0.73 | – | – |
| cyr | DRSC18021 | 0.34 | 0.65 | – | – |
| fusl | DRSC02351 | 0.07 | 0.14 | – | – |
| CG15784 | DRSC18090 | 0.29 | -0.1 | – | – |
| lncRNA:CR43632 | DRSC13730 | 0.08 | 0.43 | – | – |
| CG8229 | DRSC07114 | 0.38 | 0.36 | – | – |
| fz4 | DRSC18780 | 0.33 | 0.72 | – | – |
| AOX2 | DRSC15338 | 0.38 | 0.25 | – | – |
| fs(1)h | DRSC18778 | -3.78 | 0.34 | 0.63 | -2.4 |
| DENR | DRSC20151 | 0.42 | 0.53 | – | – |
| CG12133 | DRSC06108 | 0.3 | 0.05 | – | – |
| dmrt11E | DRSC19715 | 0.14 | 0.27 | -0.21 | -0.82 |
| CG8927 | DRSC16458 | 0.41 | 0.38 | – | – |
| CG4806 | DRSC04491 | -0.04 | -0.33 | – | – |
| Nmdmc | DRSC16760 | 0.39 | 0.46 | – | – |
| kek6 | DRSC15299 | 0.53 | 0.24 | – | – |
| tomboy20 | DRSC14913 | 0.36 | 0.22 | – | – |
| ash2 | DRSC16902 | 0.29 | 0.12 | – | – |
| swm | DRSC02012 | 0.25 | 0.21 | 0.24 | 0.39 |
| swm | DRSC21831 | -2.05 | -0.49 | – | – |
| CG33552 | DRSC01551 | 0.22 | 0.49 | – | – |
| CG33477 | DRSC22934 | -0.39 | -0.5 | – | – |
| CG17207 | DRSC15198 | 0.16 | -0.21 | – | – |
| CG13407 | DRSC14583 | 0.38 | 0.44 | – | – |
| CG8501 | DRSC07198 | 0.42 | 0.39 | – | – |
| sncRNA:430e + His2A:CG33859 + His2A:CG33817 + 37 more | DRSC21264 | -2.12 | -2.41 | – | – |

A portion taken from the entries so far, for reference:
| Target gene | DRSC id | z-score, replicate 1 | z-score, replicate 2 | z-score, replicate 3 | z-score, replicate 4 |
| --- | --- | --- | --- | --- | --- |
| CG12133 | DRSC06108 | 0.3 | 0.05 | – | – |
| dmrt11E | DRSC19715 | 0.14 | 0.27 | -0.21 | -0.82 |
| CG8927 | DRSC16458 | 0.41 | 0.38 | – | – |

Next results:
| Target gene | DRSC id | z-score, replicate 1 | z-score, replicate 2 | z-score, replicate 3 | z-score, replicate 4 |
| --- | --- | --- | --- | --- | --- |
| CG14419 | DRSC17916 | 0.17 | 0.5 | – | – |
| Lon | DRSC11049 | 0.33 | 0 | – | – |
| CG5290 | DRSC10501 | 0.45 | 0.63 | – | – |
| Dus1 | DRSC00623 | 0.21 | 0 | – | – |
| Or63a | DRSC08681 | 0.5 | 0.39 | – | – |
| CG12861 | DRSC06201 | 0.31 | 0.26 | – | – |
| CG12861 | DRSC21960 | 0.02 | 0.34 | – | – |
| lgs | DRSC17152 | 0.41 | 0.29 | – | – |
| Rpp20 + CG33932 | DRSC19467 | -0.17 | 0.48 | – | – |
| CG42755 (retired record) | DRSC09105 | 0.85 | 0.3 | – | – |
| CG42755 (retired record) | DRSC09106 | 0.47 | 0.15 | – | – |
| CG31698 | DRSC22226 | 0.49 | 0.33 | – | – |
| CCHa2-R | DRSC04825 | -1.21 | – | – | – |
| CCHa2-R | DRSC04870 | 0.34 | 0.27 | – | – |
| CCHa2-R | DRSC04871 | 0.4 | 0.32 | – | – |
| CG13947 | DRSC00365 | -0.24 | -0.13 | – | – |
| CG34354 | DRSC13863 | 0.41 | 0.14 | – | – |
| CG34354 | DRSC14515 | -2.99 | -2.54 | – | – |
| CG34354 | DRSC14558 | -3.93 | -3.45 | – | – |
| CG34354 | DRSC15645 | 0.3 | 0.27 | – | – |
| Vha100-1 | DRSC14148 | 0.39 | 0.45 | – | – |
